{"source": "PubChem BioAssay AID504648", "about": "(National Center for Advancing Translational Sciences (NCATS), 2011)", "note": "The campaign covered roughly 390,000 compounds. About 610 (0.16%) were called active. Inconclusive results, whose numbers are uncertain, are shown with a selection of clear calls. Calls come from the whole dose curve; as a rule, active = well fitted inhibition curve with a large enough effect; inconclusive = small, poorly fitted or top-dose-only effect, or effect the other way, or another doubt; inactive = no such curve, though single readings can be large or run the other way. A potency beside an inconclusive call is a rough fit, not a confirmed value. Potency is the fitted concentration of half-maximal effect."}
{"experiment": "Nrf2 qHTS screen for inhibitors: counterscreen for cytotoxicity", "conditions": "A549 ARE-Fluc cells, CellTiter-Fluor viability, 18-24 h; series mostly up to 46 µM", "method_in_brief": "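A549 ARE-Fluc cells in 5% FBS OPTI-MEM, 5000 cells/well, rested 2 h then exposed to compounds in concentration-response for 18-24 h at 37 °C. Viability by CellTiter-Fluor fluorescence (Ex 405/Em 525) after 30 min; luciferase luminescence (BugLite, 15 min, RT) read afterwards.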"}
{"smiles": "COc1ccccc1-c1cc(C(=O)N2CCCCC2)no1", "Potency": "inconclusive: 20.6 µM [activator, single point]"}
{"smiles": "CCn1c(=O)c2cc(C(=O)NC3CCCCCC3)sc2c2ccccc21", "Potency": "inactive"}
{"smiles": "C(=Cc1cccnc1)c1ccncc1", "Potency": "inactive"}
{"smiles": "O=C1C=C(NC2=CC3OC(c4ccccc4)OCC3OC2=O)CCC1", "note": "(configuration not stated)", "Potency": "inconclusive: 20.6 µM [falling, single point]"}
{"smiles": "CCOC(=O)c1c(C)[nH]c(CCC(=O)NCCCN2CCN(c3cc(C)ccc3C)CC2)c1C", "Potency": "inconclusive: 32.6 µM [falling, partial curve, poor fit]"}
{"smiles": "N#CC1=C(N)OC(c2ccccc2)=C(C#N)C1c1ccc2c(c1)OCO2", "note": "(configuration not stated)", "Potency": "inconclusive: 6.51 µM [activator, partial curve, poor fit]"}
{"smiles": "COc1ccc(C2CC(c3cccs3)=NN2C(=O)c2ccccc2)cc1OC", "note": "(configuration not stated)", "Potency": "inconclusive: 6.51 µM [falling, single point]"}
{"smiles": "O=C(CCSCc1ccccc1Cl)N1CCN(c2cccc(Cl)c2)CC1", "Potency": "inconclusive: 29.1 µM [falling, single point]"}
{"smiles": "Cc1ccc(Cn2nnc3c(=O)[nH]c(C4CCCN(S(=O)(=O)c5ccc(F)cc5)C4)nc32)cc1", "note": "(configuration not stated)", "Potency": "inconclusive: 29.1 µM [falling, single point]"}
{"smiles": "Cc1ccc(NC(=O)Cn2c(=O)c3cccn3c3ccccc32)c(C)c1", "Potency": "inactive"}
{"smiles": "CC1CCCN(C(=O)c2ccc3c(=O)n(C4CCCC4)c(=S)[nH]c3c2)C1", "note": "(configuration not stated)", "Potency": "inactive"}
{"smiles": "O=[N+]([O-])c1c(NCCO)cc(N2CCCCC2)c2nonc12", "Potency": "inconclusive: 29.1 µM [falling, partial curve, poor fit]"}
{"smiles": "Cc1ccc2[nH]c(=O)c(CN(Cc3ccco3)Cc3nnnn3Cc3ccccc3)cc2c1", "Potency": "inactive"}
{"smiles": "COc1ccc(C2NC(=O)NC(c3ccccc3)=C2c2nc3ccccc3s2)cc1", "note": "(configuration not stated)", "Potency": "inconclusive: 13 µM [falling, partial curve]"}
{"smiles": "COc1ccc(Cl)cc1NC(=O)CSc1ccc(-c2sc(C)nc2C)nn1", "Potency": "inconclusive: 25.9 µM [falling, partial curve, poor fit]"}
{"smiles": "COc1ccc(S(=O)(=O)N2CCC(C(=O)Nc3ccc4c(c3)OCCO4)CC2)cc1OC", "Potency": "inactive"}
{"smiles": "COc1cc(NC(=O)Cn2cnc3sc(C)c(S(=O)(=O)N4CCOCC4)c3c2=O)cc(OC)c1OC", "Potency": "inconclusive: 23.1 µM [falling, partial curve, poor fit]"}
{"smiles": "CCOC(=O)c1ccc2c(c1)nc(C1CCN(S(=O)(=O)c3cccs3)CC1)n2CC", "Potency": "inconclusive: 29.1 µM [falling, partial curve, poor fit]"}
{"smiles": "Cc1ccc(OCC(=O)N(C)CC(=O)Nc2ccc(Cl)c(C(F)(F)F)c2)c([N+](=O)[O-])n1", "Potency": "inconclusive: 23.1 µM [falling, single point]"}
{"smiles": "CCN(CC)C(=O)Cn1cc(/C=C(\\C#N)C(=O)N2CCN(c3ccccc3)CC2)c2ccccc21", "Potency": "inconclusive: 29.1 µM [falling, partial curve, poor fit]"}
{"smiles": "CCC(CO)Oc1cc(NCc2cccc(Cl)c2)c2ncn(C(C)C)c2c1", "note": "(configuration not stated)", "Potency": "inconclusive: 11.6 µM [falling, partial curve]"}
{"smiles": "O=C(Nc1cc(Cl)cc(Cl)c1)c1ccc(F)c(S(=O)(=O)NC2CCCCC2)c1", "Potency": "inconclusive: 20.6 µM [falling, single point]"}
{"smiles": "CCNc1nc(NCC)nc(NC(N)=S)n1", "Potency": "inactive"}
{"smiles": "CCCN1CCN(C(=O)c2oc3ccccc3c2NC(=O)COc2ccc(OC)cc2)CC1", "Potency": "inconclusive: 20.6 µM [falling, partial curve, poor fit]"}
{"smiles": "Cc1ccc(CS(=O)(=O)c2ncc(Cl)c(C(=O)Nc3nnc(C)s3)n2)cc1", "Potency": "inconclusive: 29.1 µM [falling, single point]"}
{"smiles": "NS(=O)(=O)c1ccc(CNC(=O)C2CCCN2C(=O)c2cccs2)cc1", "note": "(configuration not stated)", "Potency": "inactive"}
{"smiles": "O=C(NCc1ccccn1)c1ccc(OC2CCN(Cc3ccc(CO)o3)CC2)cc1", "Potency": "inactive"}
{"smiles": "CC(=O)c1ccc(C(=O)N2CCc3c([nH]c4ccccc34)C2c2cccc(C)n2)s1", "note": "(configuration not stated)", "Potency": "inconclusive: 20.6 µM [falling, partial curve, poor fit]"}
{"smiles": "Cc1ccc(NC(=O)CCNS(=O)(=O)c2cc(Br)cnc2N)cc1Cl", "Potency": "inconclusive: 29.1 µM [falling, single point]"}
{"smiles": "Cc1ccc2nc(Cl)c3cc(C(=O)NC4CCC(C)CC4)sc3c2c1", "note": "(configuration not stated)", "Potency": "inactive"}
{"smiles": "CNC(=O)Nc1ccccc1C(=O)NCc1ccccc1", "Potency": "inconclusive: 18.4 µM [activator, partial curve, poor fit]"}
{"smiles": "Oc1ccc(CN2CCCCC2)c2cccnc12", "Potency": "inconclusive: 16.4 µM [falling, single point]"}
{"smiles": "O=[N+]([O-])c1cc([N+](=O)[O-])c2cccnc2c1Oc1ccccc1O", "Potency": "inconclusive: 20.6 µM [falling, single point]"}
{"smiles": "O=C(O)c1ccc(N/N=C/c2ccc(-c3ccccc3)cc2)cc1", "Potency": "inconclusive: 13 µM [falling, partial curve, poor fit]"}
{"smiles": "C=CCn1c(SCC(=O)c2c(N)n(C)c(=O)n(C)c2=O)nnc1-c1ccccc1F", "Potency": "inconclusive: 7.31 µM [activator, partial curve, poor fit]"}
{"smiles": "O=C(Nc1ccc(Cc2ccncc2)cc1)C1CCC(N2C(=O)C3C4C=CC(C5CC45)C3C2=O)CC1", "note": "(configuration not stated)", "Potency": "inconclusive: 11.6 µM [falling, single point]"}
{"smiles": "C/C(=N\\NC(=O)CSCc1ccccc1Br)c1cccc([N+](=O)[O-])c1", "Potency": "inactive"}
{"smiles": "CCOC(=O)C(Cc1ccccc1)c1ccnc2nc(N)nn12", "note": "(configuration not stated)", "Potency": "inactive"}
{"smiles": "OCCN1CCN(c2ncnc3c2c(-c2ccccc2)cn3-c2ccc(F)cc2)CC1", "Potency": "inconclusive: 18.4 µM [falling, partial curve, poor fit]"}
{"smiles": "Fc1ccc(-c2cc(C(F)(F)F)nc(N3CCCCC3)n2)cc1", "Potency": "inconclusive: 29.1 µM [activator, partial curve, poor fit]"}
{"smiles": "Cc1cc(C)n(C(=O)CNC(=O)C2COc3ccccc3O2)n1", "note": "(configuration not stated)", "Potency": "inactive"}
{"smiles": "CC(C)n1cc(/C=C2/NC(=O)N(c3cccc(Cl)c3)C2=O)c2ccccc21", "Potency": "inconclusive: 29.1 µM [falling, single point]"}
